The entries are a selection whose mix differs from that of the whole data set. This is a noisy data set.
Compound: COC(=O)/C=C/c1ccccc1 [methyl cinnamate]
Experiment: log2 ratio of iodoacetamide-alkyne labeling of the cysteine site, DMSO over compound (competition); higher = stronger covalent engagement of the cysteine by the compound, active = 1 or more
Conditions: 500 µM; treatment time 1 h; system: HEK293T cell lysate
Method in brief: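 HEK293T lysate (2 mg/mL) was treated with DMSO or electrophile (500 µM, 1 h, ambient temperature), then iodoacetamide alkyne (1 h), clicked to sCIP-TMT reagents, pooled, trypsin-digested overnight at 37 °C, streptavidin-enriched and acid-eluted. Peptides were run on Orbitrap Eclipse LC-MS/MS with FAIMS and quantified in FragPipe. The log2 competition ratio per cysteine is mean control-channel over mean compound-channel reporter intensity. Duplicate channels and three replicates were used, and cysteines quantified in only one replicate were excluded.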

Sequences of proteins named here, by UniProt entry; tags and fusion partners are left off. A change or cut given only in a name is not applied to a line headed by its entry.
UniProt Q14680: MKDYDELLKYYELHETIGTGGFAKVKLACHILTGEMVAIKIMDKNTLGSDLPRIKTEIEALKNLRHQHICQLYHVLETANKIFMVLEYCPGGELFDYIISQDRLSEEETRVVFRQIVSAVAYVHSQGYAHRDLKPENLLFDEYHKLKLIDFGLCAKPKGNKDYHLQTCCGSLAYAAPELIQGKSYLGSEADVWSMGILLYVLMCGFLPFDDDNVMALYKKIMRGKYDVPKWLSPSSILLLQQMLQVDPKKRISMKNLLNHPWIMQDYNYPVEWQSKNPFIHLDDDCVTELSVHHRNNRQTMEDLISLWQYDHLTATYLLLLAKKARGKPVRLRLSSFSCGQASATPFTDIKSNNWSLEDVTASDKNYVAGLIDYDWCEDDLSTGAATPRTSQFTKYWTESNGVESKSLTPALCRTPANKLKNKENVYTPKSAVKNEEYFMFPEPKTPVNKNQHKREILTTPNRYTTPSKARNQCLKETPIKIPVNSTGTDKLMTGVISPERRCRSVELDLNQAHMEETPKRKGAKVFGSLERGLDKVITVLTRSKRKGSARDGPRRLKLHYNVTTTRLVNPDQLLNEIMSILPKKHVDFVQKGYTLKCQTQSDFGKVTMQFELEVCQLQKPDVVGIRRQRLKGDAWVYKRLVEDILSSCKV
UniProt Q14008: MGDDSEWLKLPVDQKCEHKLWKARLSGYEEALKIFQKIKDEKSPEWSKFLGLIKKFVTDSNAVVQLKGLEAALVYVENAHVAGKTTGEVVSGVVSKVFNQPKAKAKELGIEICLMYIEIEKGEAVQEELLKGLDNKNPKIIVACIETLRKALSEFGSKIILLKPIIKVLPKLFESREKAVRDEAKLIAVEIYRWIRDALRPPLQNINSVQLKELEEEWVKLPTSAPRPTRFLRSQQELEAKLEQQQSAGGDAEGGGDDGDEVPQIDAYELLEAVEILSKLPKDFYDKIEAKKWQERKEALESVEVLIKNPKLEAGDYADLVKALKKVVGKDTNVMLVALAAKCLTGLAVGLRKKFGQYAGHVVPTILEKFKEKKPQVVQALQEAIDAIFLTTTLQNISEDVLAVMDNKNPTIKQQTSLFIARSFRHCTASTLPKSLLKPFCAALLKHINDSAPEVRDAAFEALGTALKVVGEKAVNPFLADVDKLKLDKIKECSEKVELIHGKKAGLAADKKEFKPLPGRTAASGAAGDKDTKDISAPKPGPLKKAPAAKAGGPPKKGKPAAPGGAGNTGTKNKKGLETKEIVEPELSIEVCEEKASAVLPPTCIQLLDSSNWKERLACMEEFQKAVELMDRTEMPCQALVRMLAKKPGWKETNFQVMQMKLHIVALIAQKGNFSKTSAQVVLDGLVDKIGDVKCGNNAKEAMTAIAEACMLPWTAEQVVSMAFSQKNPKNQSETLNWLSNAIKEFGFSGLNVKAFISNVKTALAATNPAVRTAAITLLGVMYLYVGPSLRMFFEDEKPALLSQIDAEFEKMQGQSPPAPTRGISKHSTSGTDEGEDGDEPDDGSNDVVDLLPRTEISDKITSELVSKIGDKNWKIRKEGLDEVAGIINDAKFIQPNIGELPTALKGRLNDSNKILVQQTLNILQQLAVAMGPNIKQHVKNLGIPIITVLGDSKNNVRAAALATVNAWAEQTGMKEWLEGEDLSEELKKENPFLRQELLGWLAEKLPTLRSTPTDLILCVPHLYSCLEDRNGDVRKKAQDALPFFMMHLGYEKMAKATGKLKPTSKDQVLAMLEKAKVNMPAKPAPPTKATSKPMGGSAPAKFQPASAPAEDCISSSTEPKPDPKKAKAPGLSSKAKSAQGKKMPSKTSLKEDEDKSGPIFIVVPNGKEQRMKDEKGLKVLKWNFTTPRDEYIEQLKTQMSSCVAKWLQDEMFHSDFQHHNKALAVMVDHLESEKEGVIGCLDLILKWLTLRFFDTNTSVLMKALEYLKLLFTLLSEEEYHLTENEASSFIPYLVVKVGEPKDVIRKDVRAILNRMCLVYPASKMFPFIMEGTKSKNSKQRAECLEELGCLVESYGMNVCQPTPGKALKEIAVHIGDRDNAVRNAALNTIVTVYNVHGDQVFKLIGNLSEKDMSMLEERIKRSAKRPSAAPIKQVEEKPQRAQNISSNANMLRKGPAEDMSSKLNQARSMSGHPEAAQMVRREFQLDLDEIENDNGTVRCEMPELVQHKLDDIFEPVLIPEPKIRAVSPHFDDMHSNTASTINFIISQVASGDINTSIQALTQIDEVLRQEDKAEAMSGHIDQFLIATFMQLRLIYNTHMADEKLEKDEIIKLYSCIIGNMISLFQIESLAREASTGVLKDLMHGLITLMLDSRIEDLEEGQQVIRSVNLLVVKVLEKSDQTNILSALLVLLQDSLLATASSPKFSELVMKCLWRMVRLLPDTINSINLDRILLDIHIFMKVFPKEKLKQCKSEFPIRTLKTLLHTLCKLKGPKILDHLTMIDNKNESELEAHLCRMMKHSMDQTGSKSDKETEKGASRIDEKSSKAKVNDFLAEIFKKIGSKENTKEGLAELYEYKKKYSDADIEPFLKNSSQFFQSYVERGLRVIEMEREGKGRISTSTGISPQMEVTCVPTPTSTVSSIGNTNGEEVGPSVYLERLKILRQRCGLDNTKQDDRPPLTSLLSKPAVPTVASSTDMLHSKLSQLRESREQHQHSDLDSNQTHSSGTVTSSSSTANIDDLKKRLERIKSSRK
UniProt Q14318: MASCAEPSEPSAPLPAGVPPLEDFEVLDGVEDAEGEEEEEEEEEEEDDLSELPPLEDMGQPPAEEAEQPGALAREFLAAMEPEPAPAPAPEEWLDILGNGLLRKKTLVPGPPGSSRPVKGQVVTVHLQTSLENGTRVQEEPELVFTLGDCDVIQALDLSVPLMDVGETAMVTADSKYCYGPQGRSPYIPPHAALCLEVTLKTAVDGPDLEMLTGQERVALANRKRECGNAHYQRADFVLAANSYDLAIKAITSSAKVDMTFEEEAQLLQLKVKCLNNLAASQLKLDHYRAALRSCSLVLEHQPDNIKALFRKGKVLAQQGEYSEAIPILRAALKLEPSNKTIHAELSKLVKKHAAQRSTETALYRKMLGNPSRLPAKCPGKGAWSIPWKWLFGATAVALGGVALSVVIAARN
UniProt Q13838, whole entry, looked up: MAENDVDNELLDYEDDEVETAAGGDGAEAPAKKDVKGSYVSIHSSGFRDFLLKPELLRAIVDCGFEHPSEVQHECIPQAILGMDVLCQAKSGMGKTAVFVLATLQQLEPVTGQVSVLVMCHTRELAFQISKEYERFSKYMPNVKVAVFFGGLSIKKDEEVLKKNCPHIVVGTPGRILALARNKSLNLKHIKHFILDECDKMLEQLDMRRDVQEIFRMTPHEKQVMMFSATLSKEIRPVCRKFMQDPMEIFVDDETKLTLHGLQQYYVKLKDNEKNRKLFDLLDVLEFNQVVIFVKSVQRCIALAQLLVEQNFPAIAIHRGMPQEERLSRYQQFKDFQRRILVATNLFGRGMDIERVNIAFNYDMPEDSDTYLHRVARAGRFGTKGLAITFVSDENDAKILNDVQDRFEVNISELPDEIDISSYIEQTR
UniProt Q14674: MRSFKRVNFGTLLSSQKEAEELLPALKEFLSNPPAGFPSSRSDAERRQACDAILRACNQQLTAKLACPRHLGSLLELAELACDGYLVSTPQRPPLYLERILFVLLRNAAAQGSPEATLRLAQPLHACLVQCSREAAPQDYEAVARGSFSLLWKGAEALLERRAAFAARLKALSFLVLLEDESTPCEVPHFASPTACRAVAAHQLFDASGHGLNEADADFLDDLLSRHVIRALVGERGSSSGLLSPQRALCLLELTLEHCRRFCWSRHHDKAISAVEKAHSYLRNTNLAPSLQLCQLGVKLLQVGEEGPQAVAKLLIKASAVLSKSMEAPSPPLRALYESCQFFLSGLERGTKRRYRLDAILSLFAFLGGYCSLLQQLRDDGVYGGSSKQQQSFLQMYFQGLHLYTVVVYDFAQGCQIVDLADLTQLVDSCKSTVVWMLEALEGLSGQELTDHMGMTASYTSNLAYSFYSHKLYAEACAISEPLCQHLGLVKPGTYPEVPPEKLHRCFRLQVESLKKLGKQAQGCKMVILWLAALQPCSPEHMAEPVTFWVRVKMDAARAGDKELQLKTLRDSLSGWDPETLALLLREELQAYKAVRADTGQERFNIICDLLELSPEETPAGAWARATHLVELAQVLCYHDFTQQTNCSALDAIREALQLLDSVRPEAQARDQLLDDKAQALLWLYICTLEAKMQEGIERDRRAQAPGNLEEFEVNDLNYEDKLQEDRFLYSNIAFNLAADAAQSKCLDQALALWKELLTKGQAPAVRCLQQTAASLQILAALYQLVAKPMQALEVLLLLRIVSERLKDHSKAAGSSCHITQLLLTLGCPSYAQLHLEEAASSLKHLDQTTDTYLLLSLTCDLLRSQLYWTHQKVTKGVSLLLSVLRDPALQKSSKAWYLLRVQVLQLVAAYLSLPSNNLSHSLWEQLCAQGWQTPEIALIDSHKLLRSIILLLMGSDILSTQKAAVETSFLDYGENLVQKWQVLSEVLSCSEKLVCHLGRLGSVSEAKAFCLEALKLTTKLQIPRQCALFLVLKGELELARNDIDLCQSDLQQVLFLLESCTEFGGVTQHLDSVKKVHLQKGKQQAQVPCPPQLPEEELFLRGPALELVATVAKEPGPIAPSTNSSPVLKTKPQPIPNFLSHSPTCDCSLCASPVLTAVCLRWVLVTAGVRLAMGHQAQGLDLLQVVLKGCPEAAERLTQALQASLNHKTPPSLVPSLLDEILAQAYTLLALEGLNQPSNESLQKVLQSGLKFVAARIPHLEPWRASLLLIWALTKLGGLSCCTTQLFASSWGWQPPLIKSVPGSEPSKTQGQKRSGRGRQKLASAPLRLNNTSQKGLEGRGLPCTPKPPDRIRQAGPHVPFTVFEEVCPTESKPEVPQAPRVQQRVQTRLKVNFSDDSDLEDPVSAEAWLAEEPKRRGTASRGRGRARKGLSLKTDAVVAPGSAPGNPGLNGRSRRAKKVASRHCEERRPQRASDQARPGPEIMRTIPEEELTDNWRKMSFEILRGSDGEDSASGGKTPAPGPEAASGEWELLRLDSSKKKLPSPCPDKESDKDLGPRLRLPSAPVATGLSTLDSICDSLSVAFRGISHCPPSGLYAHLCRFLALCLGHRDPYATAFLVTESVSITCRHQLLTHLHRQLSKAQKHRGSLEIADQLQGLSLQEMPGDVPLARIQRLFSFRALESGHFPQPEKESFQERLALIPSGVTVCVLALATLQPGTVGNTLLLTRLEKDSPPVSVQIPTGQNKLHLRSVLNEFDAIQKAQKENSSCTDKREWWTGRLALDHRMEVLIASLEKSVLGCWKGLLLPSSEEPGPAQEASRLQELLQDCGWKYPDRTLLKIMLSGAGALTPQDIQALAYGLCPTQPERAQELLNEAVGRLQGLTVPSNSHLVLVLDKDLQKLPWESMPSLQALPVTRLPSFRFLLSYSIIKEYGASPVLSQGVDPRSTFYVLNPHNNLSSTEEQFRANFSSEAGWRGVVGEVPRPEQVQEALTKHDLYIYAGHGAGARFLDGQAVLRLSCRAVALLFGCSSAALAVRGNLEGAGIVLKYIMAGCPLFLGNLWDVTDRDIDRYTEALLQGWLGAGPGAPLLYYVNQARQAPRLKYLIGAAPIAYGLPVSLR
UniProt Q15005: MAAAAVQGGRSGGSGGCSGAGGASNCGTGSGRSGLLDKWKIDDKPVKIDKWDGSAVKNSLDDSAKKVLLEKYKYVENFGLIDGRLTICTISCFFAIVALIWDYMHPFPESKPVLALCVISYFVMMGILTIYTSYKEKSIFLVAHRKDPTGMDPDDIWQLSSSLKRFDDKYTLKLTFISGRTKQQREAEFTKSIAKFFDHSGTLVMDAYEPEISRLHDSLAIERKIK
UniProt Q14141: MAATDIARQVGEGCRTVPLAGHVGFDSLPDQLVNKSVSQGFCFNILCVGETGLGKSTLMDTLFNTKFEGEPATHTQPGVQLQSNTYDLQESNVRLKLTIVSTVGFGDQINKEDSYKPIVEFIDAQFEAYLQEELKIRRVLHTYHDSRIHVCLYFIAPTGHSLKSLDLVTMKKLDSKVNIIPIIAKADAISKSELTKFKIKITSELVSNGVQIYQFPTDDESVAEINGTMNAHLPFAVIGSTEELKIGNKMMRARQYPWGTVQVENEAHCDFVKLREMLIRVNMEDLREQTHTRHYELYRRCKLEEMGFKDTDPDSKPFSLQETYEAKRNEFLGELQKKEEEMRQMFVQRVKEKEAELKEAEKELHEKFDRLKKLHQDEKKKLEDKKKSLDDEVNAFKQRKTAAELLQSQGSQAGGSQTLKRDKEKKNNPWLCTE

log2 ratio of iodoacetamide-alkyne labeling, inactive:
FRG1 C159 (UniProt Q14331) -0.000801
MELK C339 (UniProt Q14680) 0.317
CKAP5 C1113 (UniProt Q14008) 0.333
MTMR2 C95 (UniProt Q13614) -0.0372
FHL3 C212 (UniProt Q13643) -0.102
DYNC1H1 C3573 (UniProt Q14204) 0.144
CBX2 C340 (UniProt Q14781) 0.143
STIM1 C49 (UniProt Q13586) 0.279
SQSTM1 C289 (UniProt Q13501) 0.524
FHL1 C36 (UniProt Q13642) 0.129
SAFB2 C449 (UniProt Q14151) 0.309
PUM1 C234 (UniProt Q14671) 0.0227
NUMA1 C1907 (UniProt Q14980) 0.197
SMC1A C1115 (UniProt Q14683) 0.198
SAFB2 C224 (UniProt Q14151) -0.0223
UniProt Q14CX7_C339 0.129
FHL1 C209 (UniProt Q13642) -0.0748
FKBP8 C227 (UniProt Q14318) 0.0246
NUMA1 C658 (UniProt Q14980) 0.187
TTLL12 C612 (UniProt Q14166) 0.193
DDX39B C198 (UniProt Q13838) 0.196
CKAP5 C441 (UniProt Q14008) 0.203
MCM6 C242 (UniProt Q14566) 0.427
EIF3A C478 (UniProt Q14152) 0.288
TRIP12 C35 (UniProt Q14669) 0.0685
ESPL1 C294 (UniProt Q14674) 0.243
RRP1B C286 (UniProt Q14684) 0.256
EIF3A C198 (UniProt Q14152) 0.243
NCAPH C296 (UniProt Q15003) 0.109
SPCS2 C17 (UniProt Q15005) 0.292
UniProt Q14141_C42 -0.241
CAMK2G C7 (UniProt Q13555) 0.306
UniProt Q14141_C432 0.256
GAPVD1 C1129 (UniProt Q14C86) 0.383
CKAP5 C1203 (UniProt Q14008) 0.125
RRP1B C583 (UniProt Q14684) 0.294
NCAPH C397 (UniProt Q15003) 0.237

3 entries drawn at random from the list so far:
log2 ratio of iodoacetamide-alkyne labeling, inactive:
STIM1 C49 (UniProt Q13586) 0.279
MELK C339 (UniProt Q14680) 0.317
SMC1A C1115 (UniProt Q14683) 0.198

Reference: the supplement of paper PMC11006884
